{"source": "PubChem BioAssay AID1347076", "about": "(National Center for Advancing Translational Sciences (NCATS), 2019)", "note": "Screen size: about 400,000 compounds; about 13,000 (3.2%) were called active. The inconclusive results got no clear call from the source; some entries with a clear call stand among them for comparison. Calls follow the shape of the dose curve; as a rule, active = well fitted cell-killing curve with a large enough effect; inconclusive = small, poorly fitted or top-dose-only effect, or effect the other way; inactive = flat fitted curve, though single readings scatter. Potencies of inconclusive entries are doubtful fits and often do not repeat. % is scaled to controls: 0 for no effect and ±100 for the full control effect; potency is read from the fitted curve at half-maximal effect.", "data": [{"experiment": "qHTS assay for MDR1-selective chemotherapeutics: Primary screen using the drug-selected MDR subline cells KB-V1; also: nearly all actives have a fitted effect of over 60% in size", "settings": "KB-V1 MDR cells viability, CellTiter-Glo, 72 h; activity change, negative = cytotoxicity: at 46.1 µM (top of the series)", "outline": "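Potencies derive from concentration-effect curves fitted to normalized luminescence (CellTiter-Glo) of KB-V1 cells treated for 72 h at 37 degrees C in phenol-red-free DMEM containing 10% FBS.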", "values": [{"smiles": "COc1cccc(Cn2cnc(-c3ccccc3OC)c2-c2cc(C)cc(C)c2)c1", "Potency": "inconclusive: 20.6 µM [cytotoxic, partial curve]"}, {"smiles": "NNc1nc2ccc(F)cc2s1", "Potency": "inconclusive: 32.6 µM [cytotoxic, partial curve, poor fit]"}, {"smiles": "CN(c1cccc(NC(=O)CN(c2cccc(Cl)c2)S(=O)(=O)c2ccc(Cl)cc2)c1)S(C)(=O)=O", "Potency": "active: 18.4 µM"}, {"smiles": "COc1ccc(NC(=O)NC23CC4(C)CC(C)(CC(C)(C4)C2)C3)cc1", "Potency": "inconclusive: 25.9 µM [cytotoxic, partial curve]"}, {"smiles": "CC(C)(C)C1CCc2c(sc(NC(=O)c3cc(-c4ccc(F)cc4)on3)c2C#N)C1", "note": "(configuration not stated)", "activity change, negative = cytotoxicity": "inactive: 11.9%"}, {"smiles": "COc1ccc(C(=O)N2CCN(C3CCC(c4ccccc4)CC3)CC2)cc1OC", "note": "(configuration not stated)", "Potency": "inconclusive: 23.1 µM [cytotoxic, single point]"}, {"smiles": "N=C1C(c2nc3ccccc3c(=O)[nH]2)=C(O)CN1CCO", "Potency": "inconclusive: 2.91 µM [rising, full curve]"}, {"smiles": "Cn1c(=O)[nH]c(=O)c2c1nc(Br)n2CCSc1nc2ccccc2o1", "Potency": "inconclusive: 18.4 µM [cytotoxic, single point]"}, {"smiles": "C=CCN1C(c2ccc(Br)cc2)=CS/C1=C(/C#N)c1nnc(N2CCOCC2)n1-c1ccccc1", "Potency": "inconclusive: 2.31 µM [cytotoxic, full curve]"}, {"smiles": "CCSC(=S)c1c(C)[nH]n(-c2ccccc2)c1=O", "activity change, negative = cytotoxicity": "inactive: 0%"}, {"smiles": "O=C(Nc1ccccc1N1CCCCC1)c1cc(S(=O)(=O)N2CCOCC2)ccc1Cl", "Potency": "inconclusive: 18.4 µM [cytotoxic, single point]"}, {"smiles": "Nc1cc2c(cc1C(=O)c1ccc(Cl)cc1)OCCO2", "Potency": "inconclusive: 20.6 µM [cytotoxic, single point]"}, {"smiles": "COc1cc2c(cc1OC)C(C1C(=O)CC(C)(C)CC1=O)N(C(=O)CCl)CC2", "note": "(configuration not stated)", "activity change, negative = cytotoxicity": "inactive: -2.7%"}, {"smiles": "COc1ccc(/C=C/C(=O)c2ccccc2)cc1COc1ccccc1F", "Potency": "inconclusive: 29.1 µM [cytotoxic, single point]"}, {"smiles": "COc1ccc(/C=C2\\CCc3c2nc2ccccc2c3C(=O)O)cc1OC", "activity change, negative = cytotoxicity": "inconclusive: -30.1% [cytotoxic]"}, {"smiles": "C=C(C)C1CC=C(C)/C(=N/NC(=O)CCCNc2cccc(C)c2)C1", "note": "(configuration not stated)", "Potency": "inconclusive: 23.1 µM [cytotoxic, single point]"}, {"smiles": "CC(=O)C1=C(C)NC(SCC(N)=O)=C(C#N)C1c1sccc1C", "note": "(configuration not stated)", "Potency": "inconclusive: 23.1 µM [cytotoxic, partial curve, poor fit]"}, {"smiles": "COc1ccc(OC)c(NC(=O)NCCCCc2ccccc2)c1", "Potency": "inconclusive: 20.6 µM [cytotoxic, single point]"}, {"smiles": "COc1ccc(CNC(=O)CN2CCN(S(=O)(=O)c3cc(Br)ccc3Br)CC2)cc1OC", "Potency": "inconclusive: 1.16 µM [cytotoxic, single point]"}, {"smiles": "Cc1ccc(C(=O)N(CC(=O)NC2CCCC2)c2ccccc2Cl)s1", "Potency": "inconclusive: 8.2 µM [cytotoxic, partial curve, poor fit]"}, {"smiles": "CN1C(=O)[C@H]2[C@@H](/C=C/c3ccccc3)N3C(=O)CN(CCO)C(=O)[C@@]3(Cc3ccccc3)[C@H]2C1=O", "activity change, negative = cytotoxicity": "inconclusive: 15.8%"}, {"smiles": "Cc1cc(C)n(CC(=O)c2cccc([N+](=O)[O-])c2)n1", "activity change, negative = cytotoxicity": "inactive: -16.7%"}, {"smiles": "O=C(C1=C[C@@H](c2ccccc2)C[C@@H](OCCCCO)O1)N1CCOCC1", "Potency": "inconclusive: 20.6 µM [rising, single point]"}, {"smiles": "CC1(C(=O)Nc2cccc3ccccc23)CCN1C(=O)Cc1ccccc1Cl", "note": "(configuration not stated)", "activity change, negative = cytotoxicity": "inactive: 4.49%"}, {"smiles": "CC(OC(=O)c1cccc(S(=O)(=O)Nc2cccc(C(F)(F)F)c2)c1)C(=O)Nc1ccc2c(c1)OCCO2", "note": "(configuration not stated)", "Potency": "active: 14.6 µM"}, {"smiles": "Cc1nc(NCC2CCCO2)nc2c1C(=O)CC(C)(C)C2", "note": "(configuration not stated)", "Potency": "active: 20.6 µM"}, {"smiles": "COc1ccccc1NC(NC(=O)c1ccccn1)C(Cl)(Cl)Cl", "note": "(configuration not stated)", "Potency": "inconclusive: 16.4 µM [cytotoxic, partial curve, poor fit]"}, {"smiles": "CN(C)C(=O)CCc1ccc2c3c([nH]c2c1)[C@]1(CCC2CCCC2)[C@@H](C(=O)N2CCOCC2)C[C@H](CC(=O)NC(C)(C)C)C(=O)N1CC3", "activity change, negative = cytotoxicity": "inactive: 0%"}, {"smiles": "O=C(Nc1nnc(-c2ccccc2SCc2ccccc2F)s1)Nc1ccccc1F", "Potency": "inconclusive: 14.6 µM [cytotoxic, partial curve, poor fit]"}, {"smiles": "COc1cc2ncnc(NCc3cccc(Cl)c3)c2cc1OC", "activity change, negative = cytotoxicity": "inactive: -18.7%"}, {"smiles": "COC(=O)c1sc2ccccc2c1-n1cccc1C(=O)C(=O)Nc1ccc(Cl)cc1", "Potency": "active: 11.6 µM"}, {"smiles": "Cc1cc2ccccc2n1CCNC(=O)Cc1ccccc1", "Potency": "inconclusive: 0.0073 µM [rising, full curve, poor fit]"}, {"smiles": "COc1ccc(Cl)cc1Nc1nc(N)nc(C(F)(F)F)n1", "Potency": "inconclusive: 23.1 µM [cytotoxic, single point]"}, {"smiles": "CC(C)NC(=O)C1CCCN(S(=O)(=O)c2ccc3c(ccn3C)c2)C1", "note": "(configuration not stated)", "activity change, negative = cytotoxicity": "inactive: 14.8%"}, {"smiles": "Cc1ccc(NC(=O)c2ccccc2NS(=O)(=O)c2ccc(F)cc2)cc1S(=O)(=O)N1CCCCC1", "Potency": "inconclusive: 20.6 µM [cytotoxic, single point]"}, {"smiles": "Cc1ccc(Nc2nc(-c3ccc(O)c(O)c3)cs2)nc1", "activity change, negative = cytotoxicity": "inactive: -7.09%"}, {"smiles": "COc1ccc2nc(SCC(=O)N(C)C3CCCCC3)[nH]c2c1", "Potency": "active: 20.6 µM"}, {"smiles": "CC(C)Cn1cc(C(=O)N2CCN(c3ccccn3)CC2)c2c3ccccc3n(C)c2c1=O", "Potency": "inconclusive: 11.6 µM [cytotoxic, partial curve, poor fit]"}, {"smiles": "COc1ccc(OC)c(-c2csc(NC(=O)Cc3cccs3)n2)c1", "Potency": "inconclusive: 8.2 µM [cytotoxic, partial curve]"}, {"smiles": "CCN(CC(=O)Nc1cccc(S(=O)(=O)N(C)c2ccccc2)c1)Cc1ccccc1", "Potency": "inconclusive: 23.1 µM [cytotoxic, partial curve, poor fit]"}, {"smiles": "CSc1ccc(/C=N/NC(=O)CN2CCN(Cc3ccccc3Cl)CC2)cc1", "Potency": "inconclusive: 14.6 µM [cytotoxic, partial curve]"}, {"smiles": "Cc1cccn2c(=O)c3cc(C#N)c(=NC(=O)c4cccs4)n(CCCOC(C)C)c3nc12", "Potency": "inconclusive: 3.66 µM [cytotoxic, partial curve, poor fit]"}]}]}
